Measurements from PubChem BioAssay AID1259415 (National Center for Advancing Translational Sciences (NCATS), 2018).
Values joined by “and” are separate entries in the source; they are usually repeats but may differ in a detail not shown here. Equal entries are not always repeated. Screen size: about 410,000 compounds; about 18,000 (4.4%) were called active. The shares of active, inactive and inconclusive entries below differ from those in the screen. No stated cut-off is given here; in the data, active means activity change below about -60%; inconclusive means no clear call, values can overlap the other calls; inactive means above about -39%.

Assay: qHTS Assay for inhibitors of the human cytomegalovirus (HCMV)
Conditions: HFF cells, HCMV-luciferase reporter, 72 h; at 57.5 µM; stronger effect = lower value
Outline: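 HFF cells seeded 16 h at 37C, treated with compounds, infected with luciferase-reporter HCMV at MOI 1 PFU/cell; luciferase read at 72 h post infection, normalized to buffer-only and Salinomycin controls.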
On the % scale 0 is the no-effect control and ±100 the full control effect.

| Structure (SMILES) | activity change, negative = inhibition |
| --- | --- |
| Cc1cccc(-c2nc(CS(=O)CC(=O)NCCc3ccccc3)c(C)o2)c1 (stereo not given) | inactive: -11.5% |
| CC(C)c1ccc(NC(=O)c2cc(S(=O)(=O)N3CCc4ccccc4C3)ccc2F)cc1 | inactive: 3.74% |
| COC(=O)C1=C(c2ccc(C(C)=O)cc2)C[C@@H]2CC[C@H]1N2C(=O)N1CCOCC1 | inconclusive: -51.9% |
| CN1C(=O)C(CC(=O)Nc2ccc(Cl)cc2)N(Cc2ccco2)C1=S (stereo not given) | inconclusive: -44.6% |
| Cc1nc2scc(-c3ccc(C(C)(C)C)cc3)c2c(=O)n1N | active: -78.1% |
| CC(=O)Nc1ccc(S(=O)(=O)NCCC(=O)OCC(=O)c2cccc(Br)c2)cc1 | inconclusive: -51.2% |
| O=C(Nc1ccc(Cl)c(Cl)c1)OCCNC(=O)c1ccncc1 | inconclusive: -46.1% |
| Cc1ccc(-n2c(=O)c3c(c4cc(C)ccc4n3C)n(CC(=O)NCC3CCCO3)c2=O)cc1 (stereo not given) | inactive: 2.87% and inactive: 53.1% |
| C#Cc1ccc(CN2CCC(Oc3cc(C(=O)NC4CC4)ccc3OC)CC2)cc1 | inactive: -22.7% |
| Cc1cc(NC(=O)CSc2nc3c(c(=O)n2-c2ccc(Br)cc2)SCC3)no1 | inconclusive: -46% |
| O=C(NCc1ccccc1F)Nc1ccc([N+](=O)[O-])cc1 | inconclusive: -56.9% |
| CCCNS(=O)(=O)c1ccc(OCC(=O)N2CCN(Cc3ccc4c(c3)OCO4)CC2)c(C)c1 | inconclusive: -45.9% |
| CN(CC(=O)Nc1cccc(F)c1)C(=O)/C=C/c1ccc(Br)s1 | inconclusive: -41.2% |
| COc1ccc(CNC(=O)CN(c2ccccc2OC)S(=O)(=O)c2cccs2)cc1 | inconclusive: -48% |
| Cc1cc(N2CCN(C)CC2)nc2ccc(NC(=O)Nc3ccc(F)cc3F)cc12 | inconclusive: -51.2% |
| COc1cccc(CNCc2ccc(OC)c3ccccc23)c1OC | inactive: 18.8% |
| COCCn1nnnc1C(C(C)C)N1CCCC(C)C1 (stereo not given) | inconclusive: -40.5% |
| Brc1ccc(C2C3=C(Nc4ncnn42)c2ccccc2OC3c2ccncc2)cc1 (stereo not given) | inconclusive: -52.8% |
| CC(=O)NCc1ccc(S(=O)(=O)N/N=C/c2ccc(N(C)C)cc2)cc1 | inactive: 29.7% |
| Cc1ccc(N(CC(O)CN2CCCCC2)S(=O)(=O)c2ccccc2[N+](=O)[O-])cc1 (stereo not given) | inconclusive: -54% |
| Cc1ccc(S(=O)(=O)N2CCCC2C(=O)Nc2ccc(Br)cc2)cc1 (stereo not given) | active: -61.2% |
| c1ccc(COC(CN2CCCCCC2)CN2CCCCCC2)cc1 | inactive: -39.3% |

| Structure (SMILES) | activity change, negative = inhibition |
| --- | --- |
| CCCn1nc(C(=O)OCC(=O)Nc2cccc(OC)c2)c2ccccc2c1=O | inactive: -7.54% |
| CCCCNC(=S)NNC(=O)c1c(Cl)c(C)nn1C | inconclusive: -42.5% |
| O=C(NCC(=O)N1CCN(Cc2ccccc2)CC1)c1cc(Cl)cc([N+](=O)[O-])c1 | active: -86.5% |
| COC(=O)C1=C(c2ccc(OCc3ccccc3)cc2)C[C@@H]2CC[C@H]1N2C(=O)NCc1ccc(OC)cc1 | inconclusive: -55.3% |
| Cc1ccc(CNS(=O)(=O)c2ccc3c(c2)CCN3C(=O)CCCC(=O)O)cc1 | inconclusive: -44.7% |
| Cc1cccc(NC(=O)c2ccoc2C)n1 | inactive: 11.2% |
| CCN1C(=O)S/C(=C/c2ccsc2)C1=O | inactive: -31.2% |
| CCOC(=O)CCCSc1nnc(CCCCCN2C(=O)c3cccc4cccc(c34)C2=O)o1 | inactive: -20.4% |
| Cc1ccc2c(c1)N(CC(=O)NCCCN1CCN(C)CC1)C(=O)CO2 | active: -69.1% |
| COc1cccc(CNC(=O)CCC2CCCN(C(=O)c3ccc(F)c(Cl)c3)C2)c1 (stereo not given) | inconclusive: -43.2% |
| Cc1ccc(/C=N/NC(=O)c2nnn(-c3nonc3N)c2-c2ccc3c(c2)OCO3)s1 | inactive: 0% |
| CC(C)Cn1c([N+](=O)[O-])nc2c1c(=O)[nH]c(=O)n2C | active: -103% |
| CCN(Cc1ccccc1)S(=O)(=O)c1ccc(C(=O)N(CCCN(C)C)c2nc3cc4c(cc3s2)OCO4)cc1 | active: -64.9% |
| C=CCN(CC=C)C(=O)Nc1cc(Cl)ccc1OC | inconclusive: -42.1% |
| Cc1cc(C(=O)CCl)c(C)n1CCc1ccc(Cl)cc1 | active: -98.3% |
| CCN(CC)c1ccc(/C=N/NC(=O)c2cnccn2)c(O)c1 | active: -98.7% |
| CCOc1ccc(S(=O)(=O)N(CC(=O)NCCc2ccc(OC)cc2)c2ccccc2)cc1 | inactive: 7.17% |
| O=C(CCC(=O)N/N=C/c1ccc(Br)o1)N/N=C/c1ccc(Br)o1 | active: -61.8% |
| CCOc1ccc(CN2C(=O)c3ccccc3Sc3ccc(C(=O)NCCCN4CCOCC4)cc32)cc1 | inactive: -32.3% and inactive: -30.9% |
| O=C(NNC(=O)c1cccc(-n2cnnn2)c1)c1ccccc1 | inconclusive: -41.4% |
| Cc1cc(C)n2nc(C(=O)N3CCCC(Nc4ccc(F)c(F)c4)C3)cc2n1 (stereo not given) | inconclusive: -50.7% |
| CSCCC(C(=O)NCc1ccccc1)n1c(C2CCN(C(C)=O)CC2)nc2ccccc21 (stereo not given) | inactive: -13.6% |

| Structure (SMILES) | activity change, negative = inhibition |
| --- | --- |
| COc1cc2c(c(OC)c1OC)-c1ccc(O)cc1C(NC(C)=O)CC2 (stereo not given) | active: -94.9% |
| Nc1nc2nccc(-c3ccc(Cl)cc3)n2n1 | inactive: 22.3% |
| CCOC(=O)Cn1c(S(=O)(=O)Cc2ccc(Cl)cc2)nc(-c2ccccc2)c1-c1ccccc1 | inconclusive: -59.2% |
| COc1cc2c(cc1OC)-c1c(OC)c(OC)cc3c1[C@H](C2)[N+](C)(C)CC3 | active: -73.7% |
| CCOC(=O)c1c(C)[nH]c(C(=O)COC(=O)/C=C/c2ccc(O)c(OC)c2)c1C | inconclusive: -42.6% |
| Cc1cc(O)c(C(=O)/C=C/c2ccccc2)c(=O)o1 | active: -92.5% |
| COc1ccc(C(=O)N2CCN(c3ccc([N+](=O)[O-])c(NCCc4ccc(OC)c(OC)c4)c3)CC2)cc1 | active: -99.2% |
| Cc1ccc(NC(=O)CC2C(=O)NCCN2C(=S)Nc2ccccc2)c(C)c1 (stereo not given) | inconclusive: -40.2% |
| COc1cc2c(cc1OC)C(C)N(C(=O)Cc1ccc(C(F)(F)F)cc1)CC2 (stereo not given) | inconclusive: -42.1% |
| CCOC(=O)Cn1c(S(=O)(=O)Cc2cccc(F)c2)nc(-c2ccccc2)c1-c1ccccc1 | inconclusive: -49% |
| O=c1cc(NCc2ccco2)[nH]c(=O)n1-c1ccc(Br)cc1 | inconclusive: -44.7% |
| Cc1cnc(=O)[nH]c1SCc1ccc([N+](=O)[O-])cc1 | inactive: -38.1% |
| CCOC(=O)N=Nc1c(O)n(CC)c2ccccc12 | inconclusive: -46.7% |
| Cc1noc(C)c1NC(=O)N(C)C[C@@H]1Oc2ccc(NC(=O)CCC(F)(F)F)cc2CC(=O)N([C@@H](C)CO)C[C@@H]1C | inactive: -23.2% |
| CCc1ccc(-c2nnn(CC(=O)N(C3CCCC3)C3CCS(=O)(=O)C3)n2)cc1 (stereo not given) | inactive: -24.1% |
| NCCc1ccn[nH]1 | active: -67.1% |
| C=CCN(CC=C)S(=O)(=O)c1ccc(C(=O)Nc2sc3c(c2C(N)=O)CCCCC3)cc1 | active: -93.4% |
| CCOc1ncccc1C(=O)N(CC)CC(=O)NCc1ccc(Cl)cc1 | inconclusive: -50.8% |
| CCOC(=O)c1cccc(NC(=O)CCc2nc(-c3ccccc3F)no2)c1 | inactive: 0.654% |
| CCC(COC(=O)Nc1ccccc1)NC(=O)OC(C)C (stereo not given) | inconclusive: -43.1% |
| Cc1cc(=O)nc2c3ccccc3n(C(C)C(=O)Nc3cc(F)ccc3F)n12 (stereo not given) | inactive: -35.4% |
| Cc1nc2c(-c3ccccc3)c(C)nn2c(C)c1CCC(=O)NCCc1ccccc1 | inactive: 11.4% |

Two records picked at random from those above, as already listed:

| Structure (SMILES) | activity change, negative = inhibition |
| --- | --- |
| NCCc1ccn[nH]1 | active: -67.1% |
| CCOC(=O)N=Nc1c(O)n(CC)c2ccccc12 | inconclusive: -46.7% |

Two entries from above, with each value named:
Cc1cc(O)c(C(=O)/C=C/c2ccccc2)c(=O)o1
  activity change, negative = inhibition: active: -92.5%
CCOc1ncccc1C(=O)N(CC)CC(=O)NCc1ccc(Cl)cc1
  activity change, negative = inhibition: inconclusive: -50.8%

More results:

| Structure (SMILES) | activity change, negative = inhibition |
| --- | --- |
| Cc1ccc(C(=O)CC(=O)c2ccccc2)cc1 | inactive: 60.8% |
| COc1ccccc1-c1nnc(SC(C)C(=O)O)n1-c1ccccc1 (stereo not given) | inactive: 16.6% |
| CC(C)c1ccc(NC(=O)N2CCN(c3ccc(Cl)c(Cl)c3)CC2)cc1 | active: -79.3% |
| COC(=O)c1cc2c(ccn2-c2ccc(F)cc2)n1C(C)C | inactive: -1.41% |
| CCOc1ccc(-n2c(Cc3cc(=O)[nH]c(=O)[nH]3)nnc2SC(C)C(=O)OC)cc1 (stereo not given) | inconclusive: -51.8% |
| NC(=O)c1c(NC(=O)C2CCCO2)sc2c1CCCCC2 (stereo not given) | inconclusive: -43.3% |
| CCOc1ccc(OCC)c(NC(=O)CN(C)S(=O)(=O)c2cccc3nsnc23)c1 | inconclusive: -52.5% |
| Cc1cccc(C)c1-n1nnnc1C(c1ccnc2ccccc12)N1CCN(C(=O)OC(C)(C)C)CC1 (stereo not given) | inactive: -20.3% |
| Cc1ccc(/C=C/C(=O)c2c(C)cc(C)[nH]c2=O)cc1 | active: -97.9% |
| CC(=O)c1c(C)n(C)c2ccc(OC(=O)c3ccc([N+](=O)[O-])cc3)cc12 | inconclusive: -51.8% |
| COc1ccc(-c2cn(Cc3ccc(C(=O)c4ccccc4)cc3)nn2)cc1 | active: -82.3% |
| O=C(NCc1ccc(Cl)cc1)N1CCN(Cc2ccccc2)CC1 | active: -93% |
| Cc1ccc(-n2nnnc2SCC(=O)Nc2cccc(NC(=O)c3ccco3)c2)cc1C | inconclusive: -48.4% |
| Cc1nc(CC(=O)Nc2nc(-c3ccccc3)cs2)cs1 | active: -73.3% |
| Cn1nnnc1Sc1ccc([N+](=O)[O-])cc1Cl | inconclusive: -55.8% |
| O=C(Nn1cnc2ccccc2c1=O)C1CCCCC1 | inactive: -4.99% |
| CS(=O)(=O)C1=NSC2=NC(=O)/C(=C\c3cccn3-c3ccccc3Cl)C(=N)N21 | inconclusive: -50.7% |
| CCNc1nc(NC(C)(C)C)nc(Oc2ccc(=O)n(-c3ccccc3)n2)n1 | inactive: -6.33% and inconclusive: -55.5% |
| CCc1ccccc1N1CC(c2nc3ccccc3n2CCOc2ccc(Cl)c(C)c2)CC1=O (stereo not given) | active: -62.4% |
